The text below walks through data of publication PMC7819943, “Rice protein-binding microarrays: a tool to detect cis-acting elements near promoter regions in rice”.

Sequences of proteins named here, by UniProt entry; tags and fusion partners are left off.
UniProt Q0JBA9, entry or part of it: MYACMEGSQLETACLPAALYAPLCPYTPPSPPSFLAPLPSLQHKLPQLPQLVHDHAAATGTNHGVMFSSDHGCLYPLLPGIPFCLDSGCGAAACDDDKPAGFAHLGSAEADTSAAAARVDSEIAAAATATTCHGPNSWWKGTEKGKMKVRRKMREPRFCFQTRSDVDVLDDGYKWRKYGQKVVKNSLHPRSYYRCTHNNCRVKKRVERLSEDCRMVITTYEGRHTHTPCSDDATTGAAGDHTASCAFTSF

Some of the results follow.

This assay deals with OsWRKY34 (Oryza sativa, UniProt Q0JBA9 1-250). The experiment in a line: protein-binding microarray (RPBM); PBS, 2% BSA, 51.3 ng/ul salmon testes DNA, 50 uM zinc acetate, 200 nM TF, 25 C, 1 h; high values mean tight binding. The conditions noted are these: protein: recombinant; tags: N-terminal polyhistidine and DsRed monomer fusion (pET32a); label: CyDye5-dUTP incorporated in the synthesized complementary strand; 3' TTTTT single-stranded linker to array surface; dsDNA, one strand shown. A digest of the protocol: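 Polyhistidine-tagged DsRed fusions of transcription factors, joined at the N-terminus, were expressed in E. coli BL21-CodonPlus and isolated on Ni–NTA. They were incubated at 200 nM for 1 h at 25 °C on a custom Agilent array, double-stranded and BSA-blocked, in PBS with 2% BSA, salmon testes DNA and 50 µM zinc acetate. The binding signal is per-feature fluorescence intensity (arbitrary units) read on an Axon 4000B scanner after washing.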
Turning to “TCTTGCCTTCTCTCCCTGTGGGCACGCCGCCACCGACACCCGGAGTCACCTAGTGCAG”, the binding signal is 8140 fluorescence intensity (a.u.).
The result for “ATAGTCATTTATTTTGTGCTCTCGTATTTTTTTTCTGTTTCGGAGTCACCTAGTGCAG” reads 9540 fluorescence intensity (a.u.); that for “AGACAAGGCTAGGTACAAGCGGTATATATATATATTTCATCGGAGTCACCTAGTGCAG”, 8370 fluorescence intensity (a.u.); that for “CAACACTACCGTAGTCTCAACCTCATTTGATCATTTCTTTCGGAGTCACCTAGTGCAG”, 9290 fluorescence intensity (a.u.).
The result for “GACTATCTCCCTTTCCATCTGCAACAATGTTTTATATATTCGGAGTCACCTAGTGCAG” reads 9470 fluorescence intensity (a.u.).
Then “GATTATGCTGTGGGATCGTTTGTCTTGGGCCGGACCGCTTCGGAGTCACCTAGTGCAG”, with 9130 fluorescence intensity (a.u.).
As to “TGTTTTCCATTTTCCAGGTTTTCCACAGCTGTGCGCCTGTCGGAGTCACCTAGTGCAG”, the binding signal is 11000 fluorescence intensity (a.u.).
For the sequence “GTTATTTCCACACTTAGTTTACTTTTAAATTAATTTAAACCGGAGTCACCTAGTGCAG”, the binding signal is 9320 fluorescence intensity (a.u.).
“ATTTGTTGTCTAGATCTCTCTTGTATTGTCAAACTGGAAACGGAGTCACCTAGTGCAG”: the binding signal is 8740 fluorescence intensity (a.u.).
Consider “GTTGGTTGGTTGGTTGGTTGGCTTCTTCTCGGTTTGTTCGCGGAGTCACCTAGTGCAG”, for which the binding signal was 25000 fluorescence intensity (a.u.).
Then “GGTATGTCCAGATTCACTCTAATGTGTTAGAATTACTCTTCGGAGTCACCTAGTGCAG”, with 8040 fluorescence intensity (a.u.); and “CTGTTCTTTTGTATGAATCCCTGAGAGTGGAATTTATAGTCGGAGTCACCTAGTGCAG”, with 8070 fluorescence intensity (a.u.); and “GCCATCCACCACCGCCCCTCCCTCTCGCCGCGCGCGCGCGCGGAGTCACCTAGTGCAG”, with 10500 fluorescence intensity (a.u.).
Consider “GACCCCGACGATCATTTATCCTGGCTTCGCCCCTGCTAACCGGAGTCACCTAGTGCAG”, for which the binding signal is 11500 fluorescence intensity (a.u.).
As to “AAGACATGTGAATTTTGGTGGGATGTGGATGGGGAATTGACGGAGTCACCTAGTGCAG”, the binding signal was 9840 fluorescence intensity (a.u.).
The result for “AGTGTCATTTGCCCGCCTCACCTGCACTCTCTCCATCTCTCGGAGTCACCTAGTGCAG” reads 8760 fluorescence intensity (a.u.); that for “TTGGAAGCTTTTCTTGCCTGCTGCATTCTGAATATAGTGTCGGAGTCACCTAGTGCAG”, 8300 fluorescence intensity (a.u.); that for “ATCTCCTTAGAGTCTGCTCTTACTGATCGGTTCCGTCTCCCGGAGTCACCTAGTGCAG”, 8080 fluorescence intensity (a.u.).
In the case of “TGCGTACGTTTTTTTTTCTTCTTTGGTTTTACCGCGCGCGCGGAGTCACCTAGTGCAG”, the binding signal was 11400 fluorescence intensity (a.u.).
Then “GATCCACCGCCGCCGCCCGCTCGCCGGAGTCCCATCGCTGCGGAGTCACCTAGTGCAG”, with 8600 fluorescence intensity (a.u.).
As for “TGGATGCAAGCAGGATGGGTTAGTGGGATTTTTCTTCTTCCGGAGTCACCTAGTGCAG”, the binding signal is 15100 fluorescence intensity (a.u.).
Then “AATGTATGACGCCGTTGACTTTTTGACCAACGTTTGACTACGGAGTCACCTAGTGCAG”, with 36100 fluorescence intensity (a.u.); and “GTGGTGGCAGGCTTGAGTGGTTAGGAGGTGGATATCGGTGCGGAGTCACCTAGTGCAG”, with 8030 fluorescence intensity (a.u.); and “CCTATAAATAACAACCAAACCTAGCACACAACTACATCTCCGGAGTCACCTAGTGCAG”, with 8380 fluorescence intensity (a.u.).
Then “AGGGCAGTGTTCTTGTTTATTTTACTTTATCCAGCGTCGCCGGAGTCACCTAGTGCAG”, with 9570 fluorescence intensity (a.u.); and “TCATGCACCGCCTCTTAATTTCTTCTTCTTTCTTGGGGCCCGGAGTCACCTAGTGCAG”, with 8420 fluorescence intensity (a.u.).
As to “GCTCACCCGTCCAGCGTTTCGCCCCTTCACCTCCCAACCACGGAGTCACCTAGTGCAG”, the binding signal is 9490 fluorescence intensity (a.u.).
Then “ATGTGGGTGTGGCATTGTTGGTGTCGGCTGCGCCGCAGCCCGGAGTCACCTAGTGCAG”, with 9630 fluorescence intensity (a.u.); and “ACTCGCTATCTTGTCACGTCCATAAGTACATGCCATTGCCCGGAGTCACCTAGTGCAG”, with 8330 fluorescence intensity (a.u.); and “TTTCAGTTTAGTATATGCACTTCTTGTTCTTCACTGCTGCCGGAGTCACCTAGTGCAG”, with 9480 fluorescence intensity (a.u.).
In the case of “GGTCATAAGCCATGCCACGCTCTTTTTAATTATTTATCAGCGGAGTCACCTAGTGCAG”, the binding signal is 11200 fluorescence intensity (a.u.).
For “TGTTCTTTTTGGCTAAAACTTTCAGAGTAACATCGATTTTCGGAGTCACCTAGTGCAG”, the binding signal was 8240 fluorescence intensity (a.u.).
Regarding “ATGTTTAAAAAAGTCAACGGCGTCGACGGAGTGTATATATCGGAGTCACCTAGTGCAG”, the binding signal was 14200 fluorescence intensity (a.u.).
The result for “GCTTCAGTGAGCCACCGCGTCGTCGCGACGCCACGCCGCGCGGAGTCACCTAGTGCAG” reads 8890 fluorescence intensity (a.u.); that for “GCCCATTTGGCCACCTATACCCGCACCCGCCGGTCCGGACCGGAGTCACCTAGTGCAG”, 11400 fluorescence intensity (a.u.); that for “ATGTTGACTAATTTCCTTAAATAATTTACTGCTACTGACTCGGAGTCACCTAGTGCAG”, 10500 fluorescence intensity (a.u.).
Then “GCGCCCGACGTACGTGCTGTATTACTGTTGTTCCGTAGATCGGAGTCACCTAGTGCAG”, with 8990 fluorescence intensity (a.u.).
Turning to “AGCCAGATCCATCGCCTCGCCGCCGTGCCTCCGCGAGCCGCGGAGTCACCTAGTGCAG”, the binding signal is 9400 fluorescence intensity (a.u.).
The result for “TTCGTCTCCGTTTCGTCTTCTTCTTCTTCTTCTTCTTCGGCGGAGTCACCTAGTGCAG” reads 8790 fluorescence intensity (a.u.).
“GCCAGTCAGCCTCCTCCCTTGCCGCGCCTGCCTTCCTAGACGGAGTCACCTAGTGCAG”: the binding signal is 9440 fluorescence intensity (a.u.).
The result for “CATGTTTGACCGTTCGTCTTATTAAAACCTGTTATGAAATCGGAGTCACCTAGTGCAG” reads 8370 fluorescence intensity (a.u.); that for “GGGTCATGTGGCATCTTTTCGTCATCATCGCCATGGCAAGCGGAGTCACCTAGTGCAG”, 10100 fluorescence intensity (a.u.); that for “AGAGCCGGTTTCTTGCATGAAAAACACATTTTTATTTTCCCGGAGTCACCTAGTGCAG”, 8840 fluorescence intensity (a.u.).
The result for “CCTCCCGCCGCCCCTTCCTCTCCCGCCGGCCGCCGCGCGGCGGAGTCACCTAGTGCAG” reads 10500 fluorescence intensity (a.u.).
On to “ATTGGTCGATGGTATTTATTGGATTGGGGCACTTGTTGATCGGAGTCACCTAGTGCAG”, for which the binding signal was 8370 fluorescence intensity (a.u.).
Then “TTTCGTTTTCTACGTGCACGCTTCCCAAACTATTAAACGACGGAGTCACCTAGTGCAG”, with 8160 fluorescence intensity (a.u.); and “ATCCGGTGGAACATAACTGCTCTTTCCATCTCATTTTAACCGGAGTCACCTAGTGCAG”, with 8700 fluorescence intensity (a.u.); and “AGGAATAGGAGTACTCCTTTTTGGCACGTATAAACCCGCGCGGAGTCACCTAGTGCAG”, with 8220 fluorescence intensity (a.u.).
Then “TAACCACATATACACACTACTCCTCAACTGTTGATTTTAACGGAGTCACCTAGTGCAG”, with 8770 fluorescence intensity (a.u.); and “AACGTTGATCACGGAAACTAGGATTTGTCTTTTTTTTTTTCGGAGTCACCTAGTGCAG”, with 8810 fluorescence intensity (a.u.).
The result for “GCCGAAGCTCGTCGCCGATGGCCATGTCCTCCTCCCGCTGCGGAGTCACCTAGTGCAG” reads 8160 fluorescence intensity (a.u.); that for “TTTCTGCTAAAAGTTTTGGTTTTTTTAATGTTCCTACCGTCGGAGTCACCTAGTGCAG”, 8120 fluorescence intensity (a.u.).
Turning to “ATTCCACTTTCAGTTTGGTTCATGAGATGCATTAAGTCTGCGGAGTCACCTAGTGCAG”, the binding signal was 9150 fluorescence intensity (a.u.).
With “CCGCCGCTACTCTCCATCATTTCAGTTTTCTCTCGAGTCACGGAGTCACCTAGTGCAG”, the binding signal is 10200 fluorescence intensity (a.u.).
